From the supplement of paper PMC8728848
Some of the results follow.

Columns and labels:
Assay in all cases: glycan array binding signal (z-score within array); higher = stronger binding
Settings in all cases: glycan notation: IUPAC condensed, linker removed
[1] = molecular target: Gal(b1-4)GlcNAc(b1-2)[Gal(b1-4)GlcNAc(b1-6)]Man(a1-6)[GlcNAc(b1-4)][Gal(b1-4)GlcNAc(b1-2)[Gal(b1-4)GlcNAc(b1-4)]Man(a1-3)]Man(b1-4)GlcNAc(b1-4)[Fuc(a1-6)]GlcNAc
Procedure, shortened: (§1)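 Negative Z-scores can be read as non-binding. The Z-score is calculated within each array and then averaged across arrays of one protein sequence at different concentrations or buffers and across linkers. Arrays, 3228 in all, were curated from the Consortium for Functional Glycomics database and kept only where the protein sequence was available.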

[2] = molecular target: Gal(b1-4)GlcNAc(b1-3)Gal(b1-3)GalNAc
Procedure, shortened: as §1

[3] = molecular target: Gal(b1-4)GlcNAc(b1-3)Gal(b1-3)GlcNAc
Procedure, shortened: as §1

[4] = molecular target: Gal(b1-4)GlcNAc(b1-3)Gal(b1-4)Glc
Procedure, shortened: as §1

[5] = molecular target: Gal(b1-4)GlcNAc(b1-3)Gal(b1-4)GlcNAc
Procedure, shortened: as §1

[6] = molecular target: Gal(b1-4)GlcNAc(b1-3)Gal(b1-4)GlcNAc(b1-2)Man(a1-3)[Gal(b1-4)GlcNAc(b1-3)Gal(b1-4)GlcNAc(b1-2)Man(a1-6)]Man(b1-4)GlcNAc(b1-4)GlcNAc
Procedure, shortened: as §1

[7] = molecular target: Gal(b1-4)GlcNAc(b1-3)Gal(b1-4)GlcNAc(b1-2)Man(a1-3)[Gal(b1-4)GlcNAc(b1-3)Gal(b1-4)GlcNAc(b1-2)Man(a1-6)]Man(b1-4)GlcNAc(b1-4)[Fuc(a1-6)]GlcNAc
Procedure, shortened: as §1

[8] = molecular target: Gal(b1-4)GlcNAc(b1-3)Gal(b1-4)GlcNAc(b1-2)[Gal(b1-4)GlcNAc(b1-3)Gal(b1-4)GlcNAc(b1-6)]Man(a1-6)[Gal(b1-4)GlcNAc(b1-3)Gal(b1-4)GlcNAc(b1-2)Man(a1-3)]Man(b1-4)GlcNAc(b1-4)GlcNAc
Procedure, shortened: as §1

[9] = molecular target: Gal(b1-4)GlcNAc(b1-3)Gal(b1-4)GlcNAc(b1-2)[Gal(b1-4)GlcNAc(b1-3)Gal(b1-4)GlcNAc(b1-6)]Man(a1-6)[Gal(b1-4)GlcNAc(b1-3)Gal(b1-4)GlcNAc(b1-2)Man(a1-3)]Man(b1-4)GlcNAc(b1-4)[Fuc(a1-6)]GlcNAc
Procedure, shortened: as §1

[10] = molecular target: Gal(b1-4)GlcNAc(b1-3)Gal(b1-4)GlcNAc(b1-3)Gal(b1-4)GlcNAc
Procedure, shortened: as §1

[11] = molecular target: Gal(b1-4)GlcNAc(b1-3)Gal(b1-4)GlcNAc(b1-3)Gal(b1-4)GlcNAc(b1-2)Man(a1-3)[Gal(b1-4)GlcNAc(b1-3)Gal(b1-4)GlcNAc(b1-3)Gal(b1-4)GlcNAc(b1-2)Man(a1-6)]Man(b1-4)GlcNAc(b1-4)GlcNAc
Procedure, shortened: as §1

[12] = molecular target: Gal(b1-4)GlcNAc(b1-3)Gal(b1-4)GlcNAc(b1-3)Gal(b1-4)GlcNAc(b1-2)Man(a1-3)[Gal(b1-4)GlcNAc(b1-3)Gal(b1-4)GlcNAc(b1-3)Gal(b1-4)GlcNAc(b1-2)Man(a1-6)]Man(b1-4)GlcNAc(b1-4)[Fuc(a1-6)]GlcNAc
Procedure, shortened: as §1

[13] = molecular target: Gal(b1-4)GlcNAc(b1-3)Gal(b1-4)GlcNAc(b1-3)Gal(b1-4)GlcNAc(b1-2)[Gal(b1-4)GlcNAc(b1-3)Gal(b1-4)GlcNAc(b1-3)Gal(b1-4)GlcNAc(b1-6)]Man(a1-6)[Gal(b1-4)GlcNAc(b1-3)Gal(b1-4)GlcNAc(b1-3)Gal(b1-4)GlcNAc(b1-2)Man(a1-3)]Man(b1-4)GlcNAc(b1-4)[Fuc(a1-6)]GlcNAc
Procedure, shortened: as §1

[14] = molecular target: Gal(b1-4)GlcNAc(b1-3)Gal(b1-4)GlcNAc(b1-3)Gal(b1-4)GlcNAc(b1-3)Gal(b1-4)GlcNAc(b1-2)Man(a1-3)[Gal(b1-4)GlcNAc(b1-3)Gal(b1-4)GlcNAc(b1-3)Gal(b1-4)GlcNAc(b1-3)Gal(b1-4)GlcNAc(b1-2)Man(a1-6)]Man(b1-4)GlcNAc(b1-4)GlcNAc
Procedure, shortened: as §1

[15] = molecular target: Gal(b1-4)GlcNAc(b1-3)Gal(b1-4)GlcNAc(b1-3)Gal(b1-4)GlcNAc(b1-3)Gal(b1-4)GlcNAc(b1-2)Man(a1-3)[Gal(b1-4)GlcNAc(b1-3)Gal(b1-4)GlcNAc(b1-3)Gal(b1-4)GlcNAc(b1-3)Gal(b1-4)GlcNAc(b1-2)Man(a1-6)]Man(b1-4)GlcNAc(b1-4)[Fuc(a1-6)]GlcNAc
Procedure, shortened: as §1

[16] = molecular target: Gal(b1-4)GlcNAc(b1-3)Gal(b1-4)GlcNAc(b1-3)Gal(b1-4)GlcNAc(b1-3)Gal(b1-4)GlcNAc(b1-2)[Gal(b1-4)GlcNAc(b1-3)Gal(b1-4)GlcNAc(b1-3)Gal(b1-4)GlcNAc(b1-3)Gal(b1-4)GlcNAc(b1-6)]Man(a1-6)[Gal(b1-4)GlcNAc(b1-3)Gal(b1-4)GlcNAc(b1-3)Gal(b1-4)GlcNAc(b1-3)Gal(b1-4)GlcNAc(b1-2)Man(a1-3)]Man(b1-4)GlcNAc(b1-4)[Fuc(a1-6)]GlcNAc
Procedure, shortened: as §1

[17] = molecular target: Gal(b1-4)GlcNAc(b1-3)Gal(b1-4)GlcNAc(b1-3)Gal(b1-4)GlcNAc(b1-3)Gal(b1-4)GlcNAc(b1-3)Gal(b1-4)GlcNAc(b1-2)Man(a1-3)[Gal(b1-4)GlcNAc(b1-3)Gal(b1-4)GlcNAc(b1-3)Gal(b1-4)GlcNAc(b1-3)Gal(b1-4)GlcNAc(b1-3)Gal(b1-4)GlcNAc(b1-2)Man(a1-6)]Man(b1-4)GlcNAc(b1-4)GlcNAc
Procedure, shortened: as §1

[18] = molecular target: Gal(b1-4)GlcNAc(b1-3)Gal(b1-4)GlcNAc(b1-3)Gal(b1-4)GlcNAc(b1-3)Gal(b1-4)GlcNAc(b1-3)Gal(b1-4)GlcNAc(b1-2)Man(a1-3)[Gal(b1-4)GlcNAc(b1-3)Gal(b1-4)GlcNAc(b1-3)Gal(b1-4)GlcNAc(b1-3)Gal(b1-4)GlcNAc(b1-3)Gal(b1-4)GlcNAc(b1-2)Man(a1-6)]Man(b1-4)GlcNAc(b1-4)[Fuc(a1-6)]GlcNAc
Procedure, shortened: as §1

[19] = molecular target: Gal(b1-4)GlcNAc(b1-3)Gal(b1-4)GlcNAc(b1-3)Gal(b1-4)GlcNAc(b1-3)Gal(b1-4)GlcNAc(b1-3)Gal(b1-4)GlcNAc(b1-2)[Gal(b1-4)GlcNAc(b1-3)Gal(b1-4)GlcNAc(b1-3)Gal(b1-4)GlcNAc(b1-3)Gal(b1-4)GlcNAc(b1-3)Gal(b1-4)GlcNAc(b1-6)]Man(a1-6)[Gal(b1-4)GlcNAc(b1-3)Gal(b1-4)GlcNAc(b1-3)Gal(b1-4)GlcNAc(b1-3)Gal(b1-4)GlcNAc(b1-3)Gal(b1-4)GlcNAc(b1-2)Man(a1-3)]Man(b1-4)GlcNAc(b1-4)[Fuc(a1-6)]GlcNAc
Procedure, shortened: as §1

[20] = molecular target: Gal(b1-4)GlcNAc(b1-3)Gal(b1-4)GlcNAc(b1-3)Gal(b1-4)GlcNAc(b1-3)Gal(b1-4)GlcNAc(b1-3)Gal(b1-4)GlcNAc(b1-3)Gal(b1-4)GlcNAc(b1-2)Man(a1-3)[Gal(b1-4)GlcNAc(b1-3)Gal(b1-4)GlcNAc(b1-3)Gal(b1-4)GlcNAc(b1-3)Gal(b1-4)GlcNAc(b1-3)Gal(b1-4)GlcNAc(b1-3)Gal(b1-4)GlcNAc(b1-2)Man(a1-6)]Man(b1-4)GlcNAc(b1-4)GlcNAc
Procedure, shortened: as §1

[21] = molecular target: Gal(b1-4)GlcNAc(b1-3)Gal(b1-4)GlcNAc(b1-3)GalNAc
Procedure, shortened: as §1

[22] = molecular target: Gal(b1-4)GlcNAc(b1-3)Gal(b1-4)GlcNAc(b1-3)[Gal(b1-4)GlcNAc(b1-3)Gal(b1-4)GlcNAc(b1-6)]GalNAc
Procedure, shortened: as §1

[23] = molecular target: Gal(b1-4)GlcNAc(b1-3)Gal(b1-4)GlcNAc(b1-6)[Gal(b1-3)]GalNAc
Procedure, shortened: as §1

B1: GST Gap3 (Streptococcus parasanguinis) (protein)
chain: MTKQLISEIYWNEIRKGENYLYGSQIKFQEDLVNFYNPQLASGKPIVTFKSRTNYQGDRHSPDLPILIQGNRYLLEYQIDAVPANSFFLQLDFFNRQAEQIESIVLRNSGESFIFPKDTFTYTLTLMSAGCQSVTYQKFMIYDINDEEKKNHIVENRYLRELLPKDLDLVKNLIEYI
- glycan array binding signal (z-score) [1]: 0.228
- glycan array binding signal (z-score) [2]: -0.043
- glycan array binding signal (z-score) [3]: -0.349
- glycan array binding signal (z-score) [4]: -0.143
- glycan array binding signal (z-score) [5]: 0.101
- glycan array binding signal (z-score) [6]: 1.96
- glycan array binding signal (z-score) [7]: -0.444
- glycan array binding signal (z-score) [8]: 0.321
- glycan array binding signal (z-score) [9]: 0.649
- glycan array binding signal (z-score) [10]: 0.165
- glycan array binding signal (z-score) [11]: 1.89
- glycan array binding signal (z-score) [12]: -0.603
- glycan array binding signal (z-score) [13]: 0.569
- glycan array binding signal (z-score) [14]: 0.157
- glycan array binding signal (z-score) [15]: 0.557
- glycan array binding signal (z-score) [16]: 2.32
- glycan array binding signal (z-score) [17]: 0.006
- glycan array binding signal (z-score) [18]: 0.529
- glycan array binding signal (z-score) [19]: 1.47
- glycan array binding signal (z-score) [20]: 1.41
- glycan array binding signal (z-score) [21]: 0.04
- glycan array binding signal (z-score) [22]: 1.21
- glycan array binding signal (z-score) [23]: -0.588
